In the assay the target is human Nup98 of HeLa cells (human (endogenous in HeLa)) (UniProt P52948). Nature of the assay: pull-down.

Sequences of proteins named here, by UniProt entry; tags and fusion partners are left off. Residues count along the entry.
UniProt P52948, residues 1-880: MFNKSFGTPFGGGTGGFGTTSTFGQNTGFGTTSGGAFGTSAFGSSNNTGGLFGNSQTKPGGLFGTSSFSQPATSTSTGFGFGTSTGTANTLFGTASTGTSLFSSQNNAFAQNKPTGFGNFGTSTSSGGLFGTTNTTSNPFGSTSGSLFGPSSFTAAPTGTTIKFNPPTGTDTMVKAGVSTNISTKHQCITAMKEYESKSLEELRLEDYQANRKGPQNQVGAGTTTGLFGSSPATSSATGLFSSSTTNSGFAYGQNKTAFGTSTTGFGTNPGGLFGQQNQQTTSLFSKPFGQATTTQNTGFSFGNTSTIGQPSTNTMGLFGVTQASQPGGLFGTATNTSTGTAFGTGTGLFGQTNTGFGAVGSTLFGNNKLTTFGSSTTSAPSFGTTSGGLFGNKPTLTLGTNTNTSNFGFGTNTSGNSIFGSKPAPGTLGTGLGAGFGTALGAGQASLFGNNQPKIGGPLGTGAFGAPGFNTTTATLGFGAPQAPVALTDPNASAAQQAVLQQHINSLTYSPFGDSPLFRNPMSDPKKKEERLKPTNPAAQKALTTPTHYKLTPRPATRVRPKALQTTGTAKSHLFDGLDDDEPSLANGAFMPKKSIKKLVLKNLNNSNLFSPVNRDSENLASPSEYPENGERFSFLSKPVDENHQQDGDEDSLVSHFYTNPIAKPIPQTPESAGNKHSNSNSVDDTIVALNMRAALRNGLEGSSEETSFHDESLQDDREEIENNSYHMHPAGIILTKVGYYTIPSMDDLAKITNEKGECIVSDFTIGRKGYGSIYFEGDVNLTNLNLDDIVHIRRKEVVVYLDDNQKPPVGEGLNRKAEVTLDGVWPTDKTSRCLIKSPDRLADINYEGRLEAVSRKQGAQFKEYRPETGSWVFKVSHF

These are yes or no findings as the source states them, for the method shown. In cells and extracts the contact can be indirect. Some binding calls cover weakened binding; strength is not graded here.

B1: human Gle2 from HeLa lysate (protein, UniProt P78406 1-368)
chain: MSLFGTTSGFGTSGTSMFGSATTDNHNPMKDIEVTSSPDDSIGCLSFSPPTLPGNFLIAGSWANDVRCWEVQDSGQTIPKAQQMHTGPVLDVCWSDDGSKVFTASCDKTAKMWDLSSNQAIQIAQHDAPVKTIHWIKAPNYSCVMTGSWDKTLKFWDTRSSNPMMVLQLPERCYCADVIYPMAVVATAERGLIVYQLENQPSEFRRIESPLKHQHRCVAIFKDKQNKPTGFALGSIEGRVAIHYINPPNPAKDNFTFKCHRSNGTNTSAPQDIYAVNGIAFHPVHGTLATVGSDGRFSFWDKDARTKLKTSEQLDQPISACCFNHNGNIFAYASSYDWSKGHEFYNPQKKNYIFLRNAAEELKPRNKK
With B1, the binding entry is given as “binds”.

Values taken from publication doi:10.1101/2023.09.12.557426.
